Test results reported in PubChem BioAssay AID540256 (National Center for Advancing Translational Sciences (NCATS), 2011).
Screen size: about 300,000 compounds; about 3,700 (1.2%) were called active. Where a call stands in place of a potency, no number is given. Inconclusive means that the source gave no clear call. Such entries were picked first, then a sample of the others. The call rests on the fitted dose curve; tested in HEK293 cells. Where the call is inconclusive, the potency comes from a doubtful curve fit.

Assay: qHTS for Inhibitors of binding or entry into cells for Lassa Virus; further: nearly all actives have a fitted effect of over 50% in size
Details: Lassa virus pseudotype entry inhibition, cell reporter; series mostly up to 37.9 µM
Potency means the concentration at half of the fitted maximal effect.

Q: Which Potency does the source give for CN1CC(=O)NC1=NC(=O)c1ccc(Cl)c(S(=O)(=O)N2CCCCCC2)c1 here?
A: inactive

Q: Which Potency does the source give for COc1ccc(NC(=O)c2c(NC(=O)c3cccc(C)c3)sc3c2CCCC3)cc1 here?
A: inactive

Q: With COC(=O)C1=C(C)Nc2[nH]c(=S)[nH]c(=O)c2C1c1ccc(OC)cc1 (centres undefined) as the molecule, how does the Potency read?
A: inactive

Q: Which Potency does the source give for Clc1ccccc1OCc1nnc(-c2ccccc2)o1 here?
A: inactive

Q: For COc1ccc(/C=C(/NC(=O)c2ccccc2)C(=O)N2CCC(C)CC2)cc1, which Potency is on record?
A: inconclusive: 7.94 µM [inhibitor, partial curve]

Q: Which Potency does the source give for O=C(NC12CC3CC(CC(C3)C1)C2)c1ccc(-c2ccc(Cl)cc2)o1 here?
A: inconclusive: 14.1 µM [inhibitor, partial curve, poor fit]

Q: Which Potency does the source give for N#CCC(=O)Nc1ccc(C(=O)OCC(=O)N2CCN(C(=O)c3ccco3)CC2)cc1 here?
A: inconclusive: 2.24 µM [inhibitor, partial curve, poor fit]

Q: With COCCn1c(SCC(=O)NCc2ccco2)nnc1C(C)C as the molecule, how does the Potency read?
A: inconclusive: 14.1 µM [activator, single point]

Q: Which Potency does the source give for Cc1ccc(C)c(CN2C(=O)c3ccccc3Sc3ccc(C(=O)NCc4ccc5c(c4)OCO5)cc32)c1 here?
A: inactive

Q: For NC(=O)CCS(=O)(=O)c1ccccc1, which Potency is on record?
A: inconclusive: 6.51 µM [activator, single point]

Q: With COCCNc1nc(SCc2ccccc2)nc2sc3c(c12)CCC3 as the molecule, how does the Potency read?
A: inactive

Q: Which Potency does the source give for N#CC1C=Cc2c(ccc3ccccc23)N1C(=O)c1ccccc1 (centres undefined) here?
A: inconclusive: 12.6 µM [inhibitor, partial curve, poor fit]

Q: With CC(=O)Nc1cc(NC(C)=O)cc(C(=O)NCC2(N3CCOCC3)CCCCC2)c1 as the molecule, how does the Potency read?
A: inconclusive: 0.112 µM [inhibitor, full curve, poor fit]

Q: For Cc1ccc(S(=O)(=O)N2CCN(C(=O)COC(=O)c3ccc(Cl)c(S(N)(=O)=O)c3)CC2)c(C)c1, which Potency is on record?
A: inactive

Q: For Cc1noc(C)c1C(=O)OCC(=O)c1ccc[nH]1, which Potency is on record?
A: inactive

Q: Which Potency does the source give for CC(=O)c1ccc(Sc2nnnn2-c2ccccc2)c([N+](=O)[O-])c1 here?
A: inactive

Q: With CN(C)/C=N/c1nc(-c2ccc3ccccc3c2)cs1 as the molecule, how does the Potency read?
A: active: 10 µM

Q: Which Potency does the source give for CC(CCc1ccc(O)cc1)NC1C2CC3CC(C2)CC1C3 (centres undefined) here?
A: inactive

Q: Which Potency does the source give for O=C(/C=C/c1ccccc1F)c1ccoc1 here?
A: inconclusive: 20 µM [inhibitor, partial curve, poor fit]

Q: For O=C(O)c1ccc2nc(-c3ccco3)c(-c3ccco3)nc2c1, which Potency is on record?
A: inactive

Q: Which Potency does the source give for COc1ccc(NC(=O)c2sc3nc[nH]c(=O)c3c2C)cc1OC here?
A: inconclusive: 35.5 µM [activator, single point]

Q: With CC(=O)C1CCCN(C(=O)c2ccc3nc(Cc4cccc(Cl)c4)oc3c2)C1 (centres undefined) as the molecule, how does the Potency read?
A: inconclusive: 12.6 µM [inhibitor, single point]

Q: Which Potency does the source give for COc1cc(C(=O)NCCC(C)C)ccc1OCc1ccc(Cl)cc1Cl here?
A: inconclusive: 35.5 µM [inhibitor, single point]

Q: Which Potency does the source give for Cc1cccc(C)c1NC(=O)CCn1cnc2ccccc2c1=O here?
A: inactive

Q: With COc1ccc(/C=N/NC(=O)CN(C)C(=O)OCc2ccccc2)cc1OC as the molecule, how does the Potency read?
A: inconclusive: 0.794 µM [inhibitor, full curve, poor fit]

Q: Which Potency does the source give for CSc1nc2ccc(NC(=O)c3c(F)cccc3F)cc2s1 here?
A: inconclusive: 3.98 µM [inhibitor, single point]

Q: Which Potency does the source give for CCN(CC)c1ccc(NC(=O)Cn2c(C(C)NC(=O)c3ccccc3)nc3ccccc32)cc1 (centres undefined) here?
A: inactive

Q: Which Potency does the source give for CSc1ccc(/C=N/N2CCN(Cc3ccccc3)CC2)cc1 here?
A: inactive

Q: With FC(F)(F)c1nnc2c(Sc3ccccc3)nc3ccccc3n12 as the molecule, how does the Potency read?
A: inactive

Q: Which Potency does the source give for CN(c1cccc(NC(=O)c2ccc(Cl)c(S(=O)(=O)Nc3ccccc3)c2)c1)S(C)(=O)=O here?
A: inactive

Q: With CN(Cc1cccs1)C(=O)COc1cccc(-n2cnnn2)c1 as the molecule, how does the Potency read?
A: inactive

Q: Which Potency does the source give for COc1ccc(N2CCN(C(=O)c3nn(-c4ccc(C)cc4)c(=O)n(C)c3=O)CC2)cc1 here?
A: inconclusive: 10 µM [inhibitor, partial curve, poor fit]

Q: With Cc1ccc(C)c(Nc2nnc(-c3ccc(C)c(S(=O)(=O)N4CCCCC4)c3)c3ccccc23)c1 as the molecule, how does the Potency read?
A: inconclusive: 10 µM [inhibitor, partial curve, poor fit]

Q: For CCN(CC)c1ccc2c(c1)C(=O)N(C)C2=O, which Potency is on record?
A: inactive

Q: Which Potency does the source give for COc1ccc(-c2nc(NC3=NCCCCC3)sc2C)cc1 here?
A: inconclusive: 0.794 µM [inhibitor, full curve, poor fit]

Q: With O=C1C(Cl)=C(N2CCCCCC2)C(=O)N1c1ccccc1 as the molecule, how does the Potency read?
A: inactive

Q: With Cc1ccc(Cc2nnc(SCC(=O)Nc3ccc(C)cc3C)[nH]c2=O)cc1 as the molecule, how does the Potency read?
A: inconclusive: 10 µM [inhibitor, partial curve]

Q: Which Potency does the source give for FC(F)(F)c1cc(-c2cccs2)nc(-n2cc(Br)cn2)n1 here?
A: inactive

Q: Which Potency does the source give for CN(CC(=O)Nc1cccc(S(=O)(=O)N2CCCC2)c1)Cc1ccccc1 here?
A: inconclusive: 20 µM [inhibitor, single point]

Q: Which Potency does the source give for Cn1c(=O)oc2cc(S(=O)(=O)N3CCC(C(=O)N4CCN(c5cccc(Cl)c5)CC4)CC3)ccc21 here?
A: inactive

Q: For Nc1cccc(-c2nc3ccc(N)cc3s2)c1, which Potency is on record?
A: inconclusive: 4.47 µM [inhibitor, partial curve, poor fit]

Q: For Cc1ccc(-n2c(-c3ccccc3)c[n+]3c2CCc2ccccc2-3)c(C)c1, which Potency is on record?
A: active: 1 µM

Q: With CCn1c(SCc2ccc(C)cc2)nnc1-c1nn(-c2ccccc2)ccc1=O as the molecule, how does the Potency read?
A: inconclusive: 15.8 µM [inhibitor, single point]

Q: Which Potency does the source give for CCOC(=O)CN(C(=O)CSc1nnc(COc2ccc(OC)cc2)n1C)c1ccccc1 here?
A: inactive

Q: With CCCCOc1ccc(C(=O)N(Cc2nc(-c3ccc(Cl)cc3)no2)C(C)C)cc1 as the molecule, how does the Potency read?
A: inconclusive: 35.5 µM [inhibitor, single point]

Q: With Cc1ccc(Cn2c(C)c(CNCc3ccc(OC(C)C)cc3)c(C(=O)O)c2C)cc1 as the molecule, how does the Potency read?
A: inactive

Q: For CCCCNC(=O)N1CCN(c2ncccn2)CC1, which Potency is on record?
A: inactive

Q: Which Potency does the source give for COc1ccc(CC(=O)NCCc2sc(-c3cccc(F)c3)nc2C)cc1 here?
A: inactive

Q: With COc1ccc(CCC(C)NC(=O)CCc2ccccc2)c(OC)c1 (centres undefined) as the molecule, how does the Potency read?
A: inconclusive: 20 µM [inhibitor, partial curve, poor fit]
